Data as given in publication PMC8753592, “Long-acting capsid inhibitor protects macaques from repeat SHIV challenges” (Nature, 2021).
Several values for one entry are separate records, joined by “and”; a condition that tells them apart may be missing. Identical values can stand only once. The source gives many values for each of these; only a part stands here.

Assay: Plasma GS-CA1 pharmacokinetics in the repeat SHIV challenge study
Format: in vivo, rhesus macaques of Indian origin
Method: For the challenge study, 24 outbred rhesus macaques of Indian origin were assigned to the three study groups with even sex and weight distributions. All animals were housed at Alpha Genesis (Yemassee, SC), and all procedures were conducted in compliance with all relevant local, state and federal regulations and were approved by the Alpha Genesis IACUC. […] The injection sites were monitored daily by veterinary staff for 3 days. Beginning in week 1, animals in all three groups were challenged by the intrarectal route with 1 ml of RPMI containing the specified dilution of a 3.62 × 10^3 TCID50 SHIV-SF162P3 stock. At each respective time point, the challenges were performed on the same day, using the same virus stock and inoculation method across the three groups. Whole blood was collected and processed into plasma and PBMCs as necessary to assess routine haematology, clinical chemistry, viral load and serology as well as for bioanalysis of drug levels. The animals were considered to be protected if they remained SHIV negative by plasma PCR assay and seronegative by enzyme immunoassay throughout the 15-week challenge phase and the 9-week follow-up.
Rhesus plasma samples were stored frozen at −80 °C.

CC(C)(C#Cc1ccc(-c2ccc(Cl)c3c(NS(=O)(=O)C4CC4)nn(CC(F)F)c23)c([C@H](Cc2cc(F)cc(F)c2)NC(=O)Cn2nc(C(F)F)c3c2C(F)(F)[C@@H]2C[C@H]32)n1)S(C)(=O)=O [GS-CA1]
Plasma GS-CA1 (300 mg/kg single s.c., Week 21, individual animals): 13.1 nM and 4.74 nM and 11.2 nM and 9.27 nM and 9.56 nM and 8.58 nM and 3.77 nM and 14.4 nM | Plasma GS-CA1 (300 mg/kg single s.c., Week 22, individual animals): 9.23 nM and 3.77 nM and 10.4 nM and 6.6 nM and 9.38 nM and 8.89 nM and 3.44 nM and 9.91 nM | Plasma GS-CA1 (300 mg/kg single s.c., Week 23, individual animals): 7.16 nM and 2.69 nM and 7.58 nM and 5.41 nM and 6.2 nM and 5.6 nM and 1.57 nM and 9.56 nM | Plasma GS-CA1 (300 mg/kg single s.c., Week 24, individual animals): 6.55 nM and 2.72 nM and 10.3 nM and 5.77 nM and 6.9 nM and 7.12 nM and 1.32 nM and 10.7 nM | Plasma GS-CA1 (GS-CA1 150mg/kg, Week 1, individual animals, 150 mg/kg): 899.55 nM and 682.28 nM and 607.28 nM and 3112.4 nM and 2515.88 nM and 761.71 nM and 881.7 nM and 687.72 nM | Plasma GS-CA1 (GS-CA1 150mg/kg, Week 2, individual animals, 150 mg/kg): 1188.65 nM and 785.09 nM and 1097.4 nM and 2107.99 nM and 2027.37 nM and 1058.77 nM and 1219.47 nM and 772.74 nM | Plasma GS-CA1 (GS-CA1 150mg/kg, Week 3, individual animals, 150 mg/kg): 497.91 nM and 268.8 nM and 333.73 nM and 751.15 nM and 1370.65 nM and 334.48 nM and 208.6 nM and 196.6 nM | Plasma GS-CA1 (GS-CA1 150mg/kg, Week 4, individual animals, 150 mg/kg): 153.01 nM and 236.71 nM and 181.28 nM and 538.14 nM and 447.86 nM and 225.23 nM and 165.1 nM and 67.54 nM | Plasma GS-CA1 (GS-CA1 150mg/kg, Week 5, individual animals, 150 mg/kg): 181.45 nM and 86.54 nM and 202.79 nM and 333.46 nM and 449.04 nM and 141.28 nM and 113.5 nM and 95.4 nM | Plasma GS-CA1 (GS-CA1 150mg/kg, Week 6, individual animals, 150 mg/kg): 238.73 nM and 84.2 nM and 202.04 nM and 164.24 nM and 313.35 nM and 81.89 nM and 78.22 nM and 94.45 nM | Plasma GS-CA1 (GS-CA1 150mg/kg, Week 7, individual animals, 150 mg/kg): 104 nM and 58.28 nM and 136.23 nM and 139.14 nM and 249.92 nM and 68.8 nM and 45.78 nM and 64.92 nM | Plasma GS-CA1 (GS-CA1 150mg/kg, Week 8, individual animals, 150 mg/kg): 126.07 nM and 152.23 nM and 170.61 nM and 117.65 nM and 160.15 nM and 80.45 nM and 55.63 nM and 81.64 nM | Plasma GS-CA1 (GS-CA1 150mg/kg, Week 9, individual animals, 150 mg/kg): 74.21 nM and 60.58 nM and 79.54 nM and 80.39 nM and 134.53 nM and 64.84 nM and 24.54 nM and 26.69 nM | Plasma GS-CA1 (GS-CA1 150mg/kg, Week 10, individual animals, 150 mg/kg): 50.06 nM and 64.16 nM and 94.96 nM and 71.29 nM and 143.77 nM and 40.65 nM and 34.92 nM and 30.22 nM | Plasma GS-CA1 (GS-CA1 150mg/kg, Week 11, individual animals, 150 mg/kg): 28.74 nM and 29.18 nM and 53.1 nM and 51.13 nM and 71.46 nM and 23.98 nM and 12.35 nM and 18.52 nM | Plasma GS-CA1 (GS-CA1 150mg/kg, Week 12, individual animals, 150 mg/kg): 46.73 nM and 64.14 nM and 60.15 nM and 56 nM and 122.09 nM and 35.07 nM and 15.87 nM and 20.76 nM | Plasma GS-CA1 (GS-CA1 150mg/kg, Week 13, individual animals, 150 mg/kg): 44.36 nM and 69.19 nM and 42.95 nM and 48.2 nM and 62.92 nM and 42.14 nM and 9.51 nM and 14.42 nM | Plasma GS-CA1 (GS-CA1 150mg/kg, Week 14, individual animals, 150 mg/kg): 34.07 nM and 37.18 nM and 42.14 nM and 41.88 nM and 89.43 nM and 23.2 nM and 7 nM and 12.98 nM | Plasma GS-CA1 (GS-CA1 150mg/kg, Week 15, individual animals, 150 mg/kg): 17.38 nM and 37.73 nM and 25.05 nM and 38.57 nM and 44.35 nM and 22.39 nM and 4.16 nM and 9.5 nM | Plasma GS-CA1 (GS-CA1 150mg/kg, Week 16, individual animals, 150 mg/kg): 12.74 nM and 17.69 nM and 12.49 nM and 11.32 nM and 27.66 nM and 12.82 nM and 1.61 nM and 6.13 nM | Plasma GS-CA1 (GS-CA1 150mg/kg, Week 17, individual animals, 150 mg/kg): 16.54 nM and 20.95 nM and 14.29 nM and 11.67 nM and 20.8 nM and 13.83 nM and 1.22 nM and 5.08 nM | Plasma GS-CA1 (GS-CA1 150mg/kg, Week 18, individual animals, 150 mg/kg): 11.37 nM and 21.96 nM and 14.77 nM and 17.45 nM and 26.6 nM and 9.89 nM and 1.7 nM and 4.55 nM | Plasma GS-CA1 (GS-CA1 150mg/kg, Week 19, individual animals, 150 mg/kg): 19.32 nM and 31.14 nM and 16.18 nM and 26.67 nM and 23.66 nM and 14.78 nM and 2.45 nM and 4.87 nM | Plasma GS-CA1 (GS-CA1 150mg/kg, Week 20, individual animals, 150 mg/kg): 17.47 nM and 23.39 nM and 12.31 nM and 15.93 nM and 26.89 nM and 11.3 nM and 1.35 nM and 3.73 nM | Plasma GS-CA1 (GS-CA1 150mg/kg, Week 21, individual animals, 150 mg/kg): 4.49 nM and 6.46 nM and 2.59 nM and 3.91 nM and 7.83 nM and 3.15 nM and 1 nM | Plasma GS-CA1 (GS-CA1 150mg/kg, Week 22, individual animals, 150 mg/kg): 3.38 nM and 6.86 nM and 2.53 nM and 2 nM and 5.84 nM and 1.85 nM and 1 nM | Plasma GS-CA1 (GS-CA1 150mg/kg, Week 23, individual animals, 150 mg/kg): 2.14 nM and 3.4 nM and 1.2 nM and 1.06 nM and 3.85 nM and 1.48 nM and 1 nM | Plasma GS-CA1 (GS-CA1 150mg/kg, Week 24, individual animals, 150 mg/kg): 4.67 nM and 4.61 nM and 1.83 nM and 2.28 nM and 3.82 nM and 2.11 nM and 1 nM | Plasma GS-CA1 (GS-CA1 300mg/kg, Week 1, individual animals, 300 mg/kg): 6745.1 nM and 5527.81 nM and 3173.56 nM and 2250.56 nM and 1571.81 nM and 7818.17 nM and 2215.11 nM and 1943.85 nM | Plasma GS-CA1 (GS-CA1 300mg/kg, Week 2, individual animals, 300 mg/kg): 5020.82 nM and 1944.23 nM and 2465.66 nM and 1332.35 nM and 2066.12 nM and 3982.53 nM and 1948.63 nM and 1830.01 nM | Plasma GS-CA1 (GS-CA1 300mg/kg, Week 3, individual animals, 300 mg/kg): 1253.58 nM and 941.93 nM and 1003.46 nM and 894.45 nM and 508.47 nM and 1653.88 nM and 632.49 nM and 741.55 nM | Plasma GS-CA1 (GS-CA1 300mg/kg, Week 4, individual animals, 300 mg/kg): 743.3 nM and 863.19 nM and 663.58 nM and 529.86 nM and 358.71 nM and 724.82 nM and 416.16 nM and 362.21 nM | Plasma GS-CA1 (GS-CA1 300mg/kg, Week 5, individual animals, 300 mg/kg): 556.02 nM and 402.12 nM and 486.51 nM and 395.27 nM and 265.76 nM and 522.82 nM and 267.83 nM and 377.26 nM | Plasma GS-CA1 (GS-CA1 300mg/kg, Week 6, individual animals, 300 mg/kg): 395.92 nM and 369.69 nM and 282.5 nM and 382.44 nM and 161.43 nM and 241.65 nM and 272.87 nM and 350.17 nM | Plasma GS-CA1 (GS-CA1 300mg/kg, Week 7, individual animals, 300 mg/kg): 342.71 nM and 179.75 nM and 260.83 nM and 339.37 nM and 180.41 nM and 131.88 nM and 157.56 nM and 306.88 nM | Plasma GS-CA1 (GS-CA1 300mg/kg, Week 8, individual animals, 300 mg/kg): 287.02 nM and 209.19 nM and 239.58 nM and 319.17 nM and 140.45 nM and 378.49 nM and 155.27 nM and 225.76 nM | Plasma GS-CA1 (GS-CA1 300mg/kg, Week 9, individual animals, 300 mg/kg): 146.99 nM and 126.8 nM and 131.46 nM and 82.73 nM and 87.54 nM and 177.38 nM and 103.79 nM and 122.13 nM | Plasma GS-CA1 (GS-CA1 300mg/kg, Week 10, individual animals, 300 mg/kg): 131 nM and 72.85 nM and 69.86 nM and 54.53 nM and 98.13 nM and 116.65 nM and 106.49 nM and 114.46 nM | Plasma GS-CA1 (GS-CA1 300mg/kg, Week 11, individual animals, 300 mg/kg): 96.21 nM and 31.54 nM and 50.2 nM and 50.03 nM and 60.16 nM and 93.91 nM and 52.24 nM and 72.29 nM | Plasma GS-CA1 (GS-CA1 300mg/kg, Week 12, individual animals, 300 mg/kg): 52.67 nM and 93.47 nM and 85.26 nM and 65.93 nM and 84.23 nM and 74.51 nM and 101.46 nM | Plasma GS-CA1 (GS-CA1 300mg/kg, Week 13, individual animals, 300 mg/kg): 66.2 nM and 32.01 nM and 73.76 nM and 74.07 nM and 43.01 nM and 66.16 nM and 46.75 nM and 76.93 nM | Plasma GS-CA1 (GS-CA1 300mg/kg, Week 14, individual animals, 300 mg/kg): 62.7 nM and 39.51 nM and 82.73 nM and 93.72 nM and 44.99 nM and 84.64 nM and 41.4 nM and 86.17 nM | Plasma GS-CA1 (GS-CA1 300mg/kg, Week 15, individual animals, 300 mg/kg): 31.84 nM and 47.7 nM and 47.41 nM and 46.82 nM and 46.22 nM and 29.22 nM and 49.88 nM | Plasma GS-CA1 (GS-CA1 300mg/kg, Week 16, individual animals, 300 mg/kg): 26.06 nM and 21.9 nM and 27.7 nM and 23.64 nM and 20.26 nM and 34.03 nM and 14.71 nM and 29.78 nM | Plasma GS-CA1 (GS-CA1 300mg/kg, Week 17, individual animals, 300 mg/kg): 22.7 nM and 16.57 nM and 27.76 nM and 26.06 nM and 20.51 nM and 24.33 nM and 12.8 nM and 38.1 nM | Plasma GS-CA1 (GS-CA1 300mg/kg, Week 18, individual animals, 300 mg/kg): 33.14 nM and 13.56 nM and 30.17 nM and 25.35 nM and 35.49 nM and 27.53 nM and 17.91 nM and 47.6 nM | Plasma GS-CA1 (GS-CA1 300mg/kg, Week 19, individual animals, 300 mg/kg): 41.41 nM and 14.88 nM and 69.82 nM and 46.95 nM and 28.95 nM and 44.98 nM and 17.38 nM and 40.91 nM | Plasma GS-CA1 (GS-CA1 300mg/kg, Week 20, individual animals, 300 mg/kg): 25.1 nM and 13.16 nM and 46.61 nM and 34.18 nM and 32.72 nM and 41.86 nM and 12.28 nM and 43.8 nM | Plasma GS-CA1 (GS-CA1 300mg/kg, Week 21, individual animals, 300 mg/kg): 13.1 nM and 4.74 nM and 11.2 nM and 9.27 nM and 9.56 nM and 8.58 nM and 3.77 nM and 14.4 nM | Plasma GS-CA1 (GS-CA1 300mg/kg, Week 22, individual animals, 300 mg/kg): 9.23 nM and 3.77 nM and 10.4 nM and 6.6 nM and 9.38 nM and 8.89 nM and 3.44 nM and 9.91 nM | Plasma GS-CA1 (GS-CA1 300mg/kg, Week 23, individual animals, 300 mg/kg): 7.16 nM and 2.69 nM and 7.58 nM and 5.41 nM and 6.2 nM and 5.6 nM and 1.57 nM and 9.56 nM | Plasma GS-CA1 (GS-CA1 300mg/kg, Week 24, individual animals, 300 mg/kg): 6.55 nM and 2.72 nM and 10.3 nM and 5.77 nM and 6.9 nM and 7.12 nM and 1.32 nM and 10.7 nM
